Patent US7307101B2, “Use of 20-HETE synthesizing enzyme inhibitors as therapy for cerebral vascular disease” (MCW Research Foundation, Inc., priority 2000, dated 2007)

Tested on: EET formation in rat renal microsomes
Test: EET formation in rat renal microsomes ([3H]-AA, Example 3)
Type: biochemical
Conditions: SHR rat renal microsomes
Experimental: All procedure was carried out at 4° C. Renal cortex was pooled from twenty male SHR rats (6 weeks of age). They were homogenized extensively in lysis buffer (20 mM HEPES, pH 7.4, 1 mM EDTA, 100 μM p-(amidinophenyl)metanesulfonyl fluoride and 250 mM sucrose), and centrifuged at 16,000×g for 10 min. Supernatant was further centrifuged at 16,000×g for 30 min. Soluble fraction was collected and centrifuged at 200,000×g for 30 min. The resulting pellet was suspended in 50 mM MOPS buffer.
The reaction was terminated by adding formic acid and acetonitrile to a final concentration of 1% and 50%, respectively.

IC50, formation of EETs: approximately 0.5 μg/ml
IC50 (read-out: IC50, formation of EETs): ~1000 nM
SMILES: Clc1ccc(COC(Cn2ccnc2)c2ccc(Cl)cc2Cl)c(Cl)c1 (centres unmarked) [miconazole]
